# In PubChem BioAssay AID2685 (National Center for Advancing Translational Sciences (NCATS), 2010):
# The list shows a part of the results. Shown are side measurements of this screen, not its main read-out; they come without a call. Most of these compounds were active or inconclusive in the main read-out, so they are no random draw. Words in brackets tell the shape of the fitted curve; partial curves, single points and poor fits give uncertain potencies.
# Assay: qHTS Assay for Lipid Storage Modulators in Drosophila S3 Cells;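 on cell number change: cells counted by Cell Tracker Red CMTPX staining in the red channel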
# Conditions: BODIPY lipid droplet fluorescence, 18-24 h; for cell number change: measured here: cell count max response, cells fed with added oleic acid
# How it was run: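 Drosophila S3 cells got compounds at several concentrations plus oleic acid (400 uM solution). Laser-scanning cytometry with 488 nm excitation read lipid droplets at 500-530 nm and cells at 575-640 nm. Percent activity was relative to 20 uM Triacsin C.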
# [1] = measured here: lipid fluorescence (Fed channel) AC50, cells fed with added oleic acid
# [2] = measured here: cell number channel AC50, cells fed with added oleic acid
SMILES,cell number change,AC50 [1],AC50 [2]
NN(Cc1ccccc1)C(=S)Nc1ccc(Cl)c(Cl)c1,9.4%,,
COc1ccc(CN2C(=O)c3cccnc3C2=O)cc1S(=O)(=O)N1CCOc2ccccc21,2.31%,"0.00517 µM [falling, full curve, poor fit]",
O=C1CCCN1CN(C(=O)c1ccc2c(c1)OCO2)c1cccc(Cl)c1,0.267%,"0.731 µM [falling, full curve]",
COc1ccc(/C=C/C(=O)c2cc(Cl)ccc2O)c(OC)c1,1.17%,,
COc1ccc2cc(C(=O)N3CCCC(Nc4ccc(F)cc4)C3)n(C)c2c1 (stereo unspecified),1.76%,,
Cn1c(=O)c2sccc2n2c(CCCC(=O)Nc3ccccc3)nnc12,3.3%,"0.651 µM [falling, partial curve, poor fit]",
CCOC(=O)c1[nH]c(CSc2nnc(-c3ccncc3)n2CCOC)c(C(=O)OCC)c1C,164%,"2.59 µM [rising, full curve]","2.91 µM [rising, full curve]"
COc1ccc(N2CCN(S(=O)(=O)CCNC(=O)/C=C/c3ccccc3)CC2)cc1,-19.1%,"0.461 µM [falling, partial curve, poor fit]",
COc1ccc(CN(Cc2ccc(C(=O)O)cc2)C(=S)Nc2ccc(C)cc2)cc1OC,,"29.1 µM [rising, single point]",
COC(=O)c1[nH]c2cc(OC)ccc2c1NC(=O)CCN1CCN(c2ccccc2)CC1,20.3%,,
CCOC(=O)C1CCN(C(=O)C2CCCN(c3ncnc4c3nc3n4CCCCC3)C2)CC1 (stereo unspecified),-14.9%,"29.1 µM [rising, single point]",
O=C(CCCCCn1c(=S)[nH]c2ccc(N3CCOCC3)cc2c1=O)NCc1ccc(Cl)cc1,-17.5%,"0.82 µM [falling, full curve, poor fit]",
CCCCCCCN(C(=O)CCl)c1ccccc1C,-35.6%,"23.1 µM [falling, single point]","20.6 µM [falling, single point]"
C=CCn1cc(C(=O)OC)c(=O)c2cc(S(=O)(=O)N3CCCCCC3)ccc21,26.3%,"29.1 µM [rising, single point]",
O=C1[C@H]2[C@@H](c3ccc(F)cc3)N3C(=O)N(c4ccccc4)C(=O)[C@@]3(Cc3ccc(Cl)cc3)[C@H]2C(=O)N1C1CCCCC1,44.9%,"2.06 µM [rising, single point]","20.6 µM [rising, partial curve, poor fit]"
Cc1ccc(C)c(NS(=O)(=O)c2cc(C(=O)NCC3CCCO3)ccc2C)c1 (stereo unspecified),-20.6%,"1.16 µM [falling, full curve, poor fit]",
CCOC(=O)c1cc2c(=O)n3ccccc3nc2n(CCOC)c1=NC(=O)C(C)(C)C,-18%,,
COc1cc(CN2CCN(C3CCC3)CC2CCO)cc(OC)c1 (stereo unspecified),6.93%,,
Cc1ccc(C(=O)N/C(=C\c2ccccc2F)c2nc(=S)[nH][nH]2)cc1,-30.2%,,

SMILES,cell number change,AC50 [1],AC50 [2]
O=C(CSc1ccccn1)c1ccc(F)cc1,13.8%,,"0.184 µM [rising, full curve, poor fit]"
CCOC(=O)c1c(C#N)cnn1-c1ccc(C)cc1,34.2%,,"11.6 µM [rising, partial curve, poor fit]"
CSCCC(Nc1ccc(S(=O)(=O)N2CCOCC2)cc1[N+](=O)[O-])C(=O)OCC(=O)NCC(C)C (stereo unspecified),,"0.13 µM [falling, full curve, poor fit]",
COc1cccc(NC(=O)N2CCOCC2)c1,-61.2%,"0.146 µM [rising, full curve, poor fit]","32.6 µM [falling, partial curve]"
CSc1nc(C)c(CCO)c(=O)[nH]1,-0.652%,,"6.51 µM [rising, single point]"
O=C(Nc1cccc2ccccc12)c1ccc(Cn2cc(Cl)cn2)cc1,-24.2%,"2.31 µM [falling, partial curve, poor fit]",
COc1ccc(CCNC(=O)Cc2cc(OCc3ccccc3)c(OC)cc2[N+](=O)[O-])cc1OC,-34.5%,"10.3 µM [falling, partial curve]","11.6 µM [falling, single point]"
O=C(CSc1nc2ccccc2c(=O)n1Cc1ccco1)NCc1ccco1,-72.1%,"14.6 µM [falling, partial curve]","14.6 µM [falling, partial curve]"
COc1ccc(C2=CC(c3cc(OC)c(OC)c(OC)c3)NC(=S)N2)cc1 (stereo unspecified),,"2.31 µM [rising, partial curve]",
CCC(C)(C)NC(=O)c1cc(S(=O)(=O)N2CCCCC2)ccc1N1CCOCC1,,"29.1 µM [rising, single point]",
CCCCn1c(N)c(N(CCOC)C(=O)C2CC(=O)N(c3cccc(SC)c3)C2)c(=O)[nH]c1=O (stereo unspecified),14.5%,,
O=C(NC1CCN(C(=O)Nc2cccc(Cl)c2)CC1)c1ccco1,7.14%,"11.6 µM [rising, partial curve]",
CNC(=O)CSc1nnc(-c2cccnc2)n1-c1ccc(C)cc1,-2.95%,"0.00517 µM [falling, full curve, poor fit]",
Cn1c(NCCCN2CCOCC2)nc2c1c(=O)n(Cc1ccc(Cl)cc1)c(=O)n2C,22.7%,"0.0058 µM [falling, full curve, poor fit]","1.16 µM [rising, full curve, poor fit]"
Cc1oc(-c2ccccc2Cl)nc1CS(=O)CC(=O)NCc1ccco1 (stereo unspecified),-7.22%,,
c1ccc2sc(Nc3nc4cc5c(cc4s3)OCO5)nc2c1,-20.3%,"2.31 µM [rising, single point]",
COc1cc(/C=N/N2CCN(Cc3ccc(Cl)cc3)CC2)ccc1OC(C)=O,-9.71%,,
CCOC(=O)c1c(CC(C)C)csc1NC(C)=O,-63.5%,"6.51 µM [rising, single point]","29.1 µM [falling, single point]"
COc1ccc(-c2nnn3c2nc(NCc2ccccc2)c2ccccc23)cc1,28.9%,"0.411 µM [rising, full curve, poor fit]","0.82 µM [rising, full curve, poor fit]"

# Two of the compounds above, tab-delimited:
SMILES	cell number change	AC50 [1]	AC50 [2]
CCC(C)(C)NC(=O)c1cc(S(=O)(=O)N2CCCCC2)ccc1N1CCOCC1		29.1 µM [rising, single point]	
O=C(NC1CCN(C(=O)Nc2cccc(Cl)c2)CC1)c1ccco1	7.14%	11.6 µM [rising, partial curve]	
